This assay is described as follows: qHTS Assay for Modulators of Lamin A Splicing. As to conditions: HeLa LMNA splicing GFP/RFP minigene ratio, 48 h. In a few lines:
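S3 HeLa cells stably expressing lamin A-EGFP splicing minigene plus DsRed2, 600 cells/well, 48 h compound exposure at 37C. Laser-scanning cytometry; analysed as GFP (500-530 nm)/RFP (575-640 nm) total intensity ratio; 0.5% DMSO vehicle.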
For orientation: Quantitative high-throughput screening tests each substance at several concentrations.

Where [1] appears, read: measured here: GFP splicing reporter channel.
[2] abbreviates: measured here: RFP viability control channel.

Molecules are shown by their SMILES. Some of the results follow. Shown are side measurements of this screen, not its main read-out; they come without a call. Compounds called inactive in the main read-out are mostly missing here. Words in brackets tell the shape of the fitted curve; partial curves, single points and poor fits give uncertain potencies.

For orientation: AC50 means the concentration giving half of the maximal activity seen. Turning to `S=c1[nH]nc(-c2ccccn2)n1/N=C/c1ccc(-c2ccccc2Br)o1`, the AC50 was 11.2 µM [falling, partial curve, poor fit] under setting [1] and 6.31 µM [falling, partial curve, poor fit] under setting [2]. Regarding `CC1Cc2nc(SCC(=O)Nc3nc4ccccc4s3)n(C)c(=O)c2S1` (stereo not drawn), the AC50 under setting [2] was 35.5 µM [rising, single point].

For `CC(C)CCOc1ccc(C(=O)N2CCCC2C(=O)O)cc1` (stereo not drawn), the AC50 under setting [1] is 0.0316 µM [rising, full curve, poor fit]. Turning to `COC(=O)c1c(NC(=O)CN2CCOCC2)sc2c1CCC(C)C2` (stereo not drawn), the AC50 under setting [1] is 10 µM [rising, single point]. Regarding `Cc1cccc(CNc2ncnc3ccc(-c4ccc5c(c4)OCO5)cc23)c1`, the AC50 by setting is: under setting [1], 25.1 µM [falling, single point]; under setting [2], 8.91 µM [falling, partial curve]. Consider `CCCC(=O)c1ccc(N2CCN(C(=O)c3ccc(Br)cc3)CC2)c(F)c1`, for which, under setting [1], the half-maximal activity concentration (AC50) was 12.6 µM [rising, single point]. In the case of `COc1cccc(CSc2nc3cc4c(cc3cc2C)OCCO4)c1`, under setting [2], the half-maximal activity concentration (AC50) was 5.62 µM [rising, partial curve, poor fit]. Take `Cc1cc(C)nc(/N=C(\N)Nc2ccc(S(=O)(=O)Nc3nccc(C)n3)cc2)n1`: the AC50 under setting [1] was 0.398 µM [falling, full curve]. Still for that read-out and setting: for `CCc1ccc(NC(=O)c2cc(S(=O)(=O)NC3CCCC3)ccc2F)cc1` the value was 11.2 µM [falling, partial curve]. On to `CC(C)c1ccccc1OCCCCCNCCO`, for which the half-maximal activity concentration (AC50) under setting [2] was 0.00316 µM [falling, full curve, poor fit].

For the molecule `Clc1ccc(CSc2nnc(NC3=NCCCCC3)s2)cc1`, under setting [2], the AC50 is 35.5 µM [rising, single point].

For `COc1ccc(C(=O)Oc2cccc(/C=N/NC(N)=S)c2)cc1`, the AC50 under setting [2] is 35.5 µM [rising, single point]. Regarding `Cc1cc(C)cc(Oc2coc3cc(OC(=O)c4cccnc4)ccc3c2=O)c1`, under setting [2], the half-maximal activity concentration (AC50) was 35.5 µM [rising, single point]. Turning to `Cc1ccc(S(=O)(=O)N(CC(=O)Nc2ccccc2C(=O)O)c2cccc(Cl)c2C)cc1`, the AC50 reads like this: under setting [1], 0.355 µM [falling, partial curve, poor fit]; under setting [2], 31.6 µM [rising, single point]. `CCN[C@@H]1CN(CCCOC)S(=O)(=O)c2sc(S(N)(=O)=O)cc21`: the AC50 runs as follows: under setting [1], 7.08 µM [falling, partial curve, poor fit]; under setting [2], 0.002 µM [falling, full curve, poor fit].

Take `O=C(Nc1ccc(Cl)cc1)N1CC=CCC1`: the AC50 under setting [1] is 5.62 µM [rising, single point] and the AC50 under setting [2] was 5.62 µM [rising, single point]. For `COc1ccc(OCC(O)Cn2c(=N)n(Cc3ccccc3)c3ccccc32)cc1` (stereo not drawn), the half-maximal activity concentration (AC50) under setting [2] was 35.5 µM [rising, single point].

For `CC(C(=O)OCc1nnc(-c2ccccc2)o1)N1C(=O)C2CCCCC2C1=O` (stereo not drawn), the AC50 under setting [1] is 1 µM [rising, full curve, poor fit] and the AC50 under setting [2] was 0.141 µM [rising, full curve, poor fit]. For the molecule `O=C(Nc1ccccc1Oc1ccccc1)c1ccccc1F`, the AC50 under setting [1] is 22.4 µM [rising, single point]. As for `Cc1ccc(S(=O)(=O)n2cc(-c3ccccc3)c(N)n2)cc1`, under setting [2], the AC50 is 28.2 µM [rising, single point]. As for `CCNc1ncc2nc(CCc3ccccc3)c(=O)n(Cc3ccc(F)cc3)c2n1`, the concentration at half-maximal activity (AC50) is 22.4 µM [falling, single point] under setting [1] and 11.2 µM [falling, partial curve] under setting [2]. Take `Cc1cccc(OCC(=O)Nc2cccc(C(=O)NCC(C)C)c2)c1`: the AC50 under setting [2] is 35.5 µM [rising, single point].

In the case of `CC(C(=O)Nc1cc([N+](=O)[O-])ccc1Cl)N1CCN(c2ccc(O)cc2)CC1` (stereo not drawn), the AC50 under setting [2] is 12.6 µM [rising, single point]. The same measure, in the same setting: with `c1ccc(CN2CCC(N=C3NN=C(c4ccc5c(c4)OCCO5)CS3)CC2)cc1` the figure was 14.1 µM [falling, single point].

For `N=C(N)c1ccc(N)cc1`, the AC50 under setting [1] was 0.398 µM [falling, partial curve, poor fit]. On to `O=C(Nc1sc2c(c1C(=O)NCC1CCCO1)CCCC2)c1cccs1` (stereo not drawn), for which the concentration at half-maximal activity (AC50) under setting [2] was 28.2 µM [rising, single point]. In the case of `NC(=O)CSc1nnc(Cc2ccc3c(c2)OCO3)o1`, the concentration at half-maximal activity (AC50) under setting [2] was 0.447 µM [falling, single point]. As to `CCCN(CCC)CCc1cccc2c1CC(=O)N2`, the AC50 is 35.5 µM [falling, single point] under setting [1] and 35.5 µM [falling, single point] under setting [2].

As for `O=C(CNc1cc(S(=O)(=O)N2CCCC2)ccc1OCC(F)(F)F)Nc1cccc(C(F)(F)F)c1`, the AC50 under setting [2] is 8.91 µM [rising, partial curve].

As for `CC(=O)c1ccc(Nc2cc(C)nc3nc(C)nn23)cc1`, the AC50 under setting [2] is 3.98 µM [rising, single point]. As for `COc1cccc(CNC(=O)C(=O)NCC(c2cccs2)S(=O)(=O)c2ccccc2)c1` (stereo not drawn), under setting [2], the half-maximal activity concentration (AC50) is 35.5 µM [falling, partial curve, poor fit]. For the molecule `Oc1ccc(/C=N/Nc2nc(-c3ccc(Cl)cc3)cc(C(F)(F)F)n2)cc1`, the AC50 under setting [1] is 14.1 µM [rising, single point] and the half-maximal activity concentration (AC50) under setting [2] is 12.6 µM [rising, partial curve]. `Cc1ccc2[nH]c(=O)c(C3C(C#N)=C(N)Oc4c3ccc3cccnc43)cc2c1` (stereo not drawn): the concentration at half-maximal activity (AC50) under setting [2] is 25.1 µM [rising, single point]. Consider `O=C1CC(=C(c2ccccc2)c2ccccc2)C(=O)N1CCN1CCN(c2cccc(Cl)c2)CC1`, for which the AC50 under setting [2] was 12.6 µM [rising, single point].

Turning to `Cc1ccccc1Cn1c(-c2cncs2)nc2ccccc21`, the AC50 under setting [1] was 31.6 µM [rising, single point]. For the molecule `COc1ccc2c(c1)OC(O)(C(F)(F)C(F)F)CC2=O` (stereo not drawn), the concentration at half-maximal activity (AC50) under setting [2] is 14.1 µM [rising, partial curve].

For `CCCCN=C(N)N=C(N)N`, the half-maximal activity concentration (AC50) is 35.5 µM [falling, single point] under setting [1] and 3.16 µM [falling, partial curve, poor fit] under setting [2]. Regarding `COc1ccc2cc(C3C(C#N)=C(N)OC(C)=C3C(C)=O)c(Cl)nc2c1` (stereo not drawn), the AC50 under setting [1] is 15.8 µM [falling, partial curve, poor fit].

The values are drawn from PubChem BioAssay AID1487 (National Center for Advancing Translational Sciences (NCATS), 2009).
